Source: publication PMC12733757
Results are given in words; binding and its absence hold for the method and conditions named. Binding seen in cells or lysates may run through a third protein. Some binding calls cover weakened binding; strength is not graded here. Tags and fused reporters may be left off the sequences shown.

The chains behind the UniProt entries cited, without tags or fusion partners.
UniProt Q39255: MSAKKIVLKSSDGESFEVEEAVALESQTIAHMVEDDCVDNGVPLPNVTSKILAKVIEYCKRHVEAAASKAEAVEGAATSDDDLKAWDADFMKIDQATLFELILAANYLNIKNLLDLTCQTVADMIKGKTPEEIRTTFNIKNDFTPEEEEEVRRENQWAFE

Biological target: T1, AtMAX2 (At2g42620), N-terminal split YFP fusion (rBiFC) (Arabidopsis) (UniProt Q9SIM9)
T1 sequence: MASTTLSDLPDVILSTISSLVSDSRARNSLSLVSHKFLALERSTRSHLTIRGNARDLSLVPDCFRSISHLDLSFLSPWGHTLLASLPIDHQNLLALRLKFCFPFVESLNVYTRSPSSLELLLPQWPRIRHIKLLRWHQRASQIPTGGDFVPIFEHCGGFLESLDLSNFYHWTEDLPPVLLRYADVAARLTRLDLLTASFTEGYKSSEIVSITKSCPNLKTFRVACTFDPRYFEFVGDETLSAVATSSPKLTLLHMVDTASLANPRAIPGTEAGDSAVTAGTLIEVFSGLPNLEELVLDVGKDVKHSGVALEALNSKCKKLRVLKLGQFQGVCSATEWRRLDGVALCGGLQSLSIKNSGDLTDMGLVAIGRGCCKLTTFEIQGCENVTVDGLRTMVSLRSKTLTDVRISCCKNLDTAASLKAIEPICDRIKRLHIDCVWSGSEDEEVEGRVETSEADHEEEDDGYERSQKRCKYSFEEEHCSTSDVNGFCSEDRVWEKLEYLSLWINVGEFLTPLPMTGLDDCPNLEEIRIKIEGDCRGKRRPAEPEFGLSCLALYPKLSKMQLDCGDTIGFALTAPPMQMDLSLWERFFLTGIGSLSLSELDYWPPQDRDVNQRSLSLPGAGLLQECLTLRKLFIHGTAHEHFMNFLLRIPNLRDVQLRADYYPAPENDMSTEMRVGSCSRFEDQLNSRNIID
Test: split reporter; ratiometric BiFC (2in1 vector, N-terminal split YFP fusions, constitutive RFP cassette) in tobacco leaf epidermal cells; confocal microscopy, nuclear YFP/RFP ratio

In the case of “AtSKP1 (At1g75950), N-terminal split YFP fusion (rBiFC) (from UniProt Q39255 1-160)”, the binding was “binds”.
